# Library screen at single concentrations

Source: ChEMBL document CHEMBL3988442, “University of Dundee, Small-Polar-MMV Screening Library” (2021).

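Growth of Mycobacterium tuberculosis over 3 days (7H9 medium with glucose and tyloxapol); the read-out is not stated. Concentration: 50 µM. Direction is inferred from retests: higher values go with more growth inhibition. About 69,000 compounds were tested under these conditions; 1.1% (about 760) showed 50% or more at least once.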

Values are the deposited “Percent Effect”, in %. The record does not define 0% and 100%; most values in the screen are far below 50% and negative numbers occur (in some assays of this library far below -100). Compounds were drawn at random from those tested, without regard to their results. Two or more numbers in one place are separate tests of the same structure; such repeats can differ widely.

Cc1nc(NC2(CN3CCCCC3)CCCCC2)c2cnn(C)c2n1 gave 18.01%. Cc1nn(C)c(C)c1C1COCCN1C(=O)CCc1ccccc1 (stereo not drawn) read -0.3901%. With O=c1[nH]ncc(NCCOc2ccc3c(c2)CCC3)c1Cl the screen gave 31.16%. With Cc1cc(C(=O)N2CCCC(C)C2)ccc1NCC(=O)N1CCOCC1 (stereo not drawn) the screen gave -2.449%. For CN(C)C(=O)N1CCN(C(=O)Nc2nc(-c3ccccc3)ns2)CC1 the result was 28.8% and 15.58%. CCCc1nnc(NCc2ccc(OC)c(C#N)c2)o1 read -4.466%. O=S(=O)(CC1CC1)c1ncc(CN2CCSCC2)n1CC1CCCO1 (stereo not drawn) gave -10.75%.

With CCn1nc(C)c2ncnc(NCC(=O)N3CCOCC3)c21 the screen gave -3.992%. With CNC(=O)c1sc2ncccc2c1C1CCN(C(=O)CCOC)C1 (stereo not drawn) the screen gave -5.826%. With O=C(NC1CCCN(c2ccc(OC(F)F)cc2)C1)c1cc[nH]n1 (stereo not drawn) the screen gave 32.66%. For COc1ccc(C2CCCN2C(=O)CCNc2ncccn2)cc1 (stereo not drawn) the result was 2.757% and 6.775%. Result for CN1CC2(COCCN(c3ncccn3)C2)OCC1=O (stereo not drawn) was -22.74%. CCOc1ccc(CC(CNC(=O)c2ccoc2)C(N)=O)cc1 (stereo not drawn) gave -6.164%. For COc1ccc2c(c1)OCC(CNC(=O)c1cnc(NC(C)C)nc1)C2 (stereo not drawn) the result was -20.44%.

COCCN1CCCC2(CCN(c3cccc(C(F)(F)F)n3)C2)C1=O (stereo not drawn) read 25.9% and 4.788%. CCC(C)(C)C(=O)Nc1ccc2ccn(CC(=O)NC)c2c1 gave -17.69% and -1.214%. Result for Cn1cc(-c2cnc3n2CCC32CCN(S(C)(=O)=O)CC2)cn1 was -28.22%. With CCc1noc(CN2CCN(C(=O)C3CC3)CC2)n1 the screen gave -24.03%. CCC(CO)N(Cc1ccco1)Cc1c(C)nn(C)c1Cl (stereo not drawn) gave -3.368%. Result for CC(C)c1cc(NCC2(Cn3cccn3)CC2)n2nccc2n1 was 17.61%. Result for CCc1noc(CCCC(=O)N2CCCC(c3ccn[nH]3)C2)n1 (stereo not drawn) was 15.36%.

With O=C(NCC1CC1)C1CCC2(CCN(C(=O)c3ccco3)CC2)O1 (stereo not drawn) the screen gave 2.574%. For CC(C)C(=O)NC1CCCN(C(=O)c2ccccc2O)C1 (stereo not drawn) the result was 11.15%. Result for CC(C)n1ccnc1CN1CCOC(CC2CCCCC2)C1 (stereo not drawn) was -17.66% and 10.77%. Cc1ccc(N(C)C2CCN(C(=O)c3n[nH]c4c3CCC4)CC2)nn1 gave -2.422%. For COc1cccc2c1OCC(NC(=O)NCc1cccs1)C2 (stereo not drawn) the result was 2.718% and 12.97%. With CCc1ncc2c(n1)CN(C(C)C(=O)N1CCOCC1)CC2 (stereo not drawn) the screen gave -29.85%. With N#Cc1ccc(F)c(CN2CCCC2Cn2cncn2)c1 (stereo not drawn) the screen gave -7.16%.